According to the supplement of paper PMC7666118:
This is one part of the list.

Chains of the proteins cited; added tags and fusions are not shown. Lines headed by an entry give the natural chain unless they say otherwise; changes in a name come on top.
UniProt Q6SPF0: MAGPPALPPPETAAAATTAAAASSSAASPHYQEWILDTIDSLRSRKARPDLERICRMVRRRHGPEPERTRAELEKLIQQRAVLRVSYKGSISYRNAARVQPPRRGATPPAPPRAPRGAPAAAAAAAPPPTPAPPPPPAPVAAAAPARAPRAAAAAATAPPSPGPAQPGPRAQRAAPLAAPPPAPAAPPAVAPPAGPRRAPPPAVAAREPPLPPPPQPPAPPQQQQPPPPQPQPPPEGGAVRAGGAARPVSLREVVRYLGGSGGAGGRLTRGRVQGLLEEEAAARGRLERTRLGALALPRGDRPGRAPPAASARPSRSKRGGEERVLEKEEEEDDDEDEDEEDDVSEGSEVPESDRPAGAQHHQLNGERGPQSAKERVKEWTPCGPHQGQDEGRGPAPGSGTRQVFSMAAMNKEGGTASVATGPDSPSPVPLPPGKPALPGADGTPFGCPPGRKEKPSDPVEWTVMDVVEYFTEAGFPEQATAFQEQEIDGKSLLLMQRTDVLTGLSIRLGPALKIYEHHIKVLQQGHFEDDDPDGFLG
UniProt Q5TA31: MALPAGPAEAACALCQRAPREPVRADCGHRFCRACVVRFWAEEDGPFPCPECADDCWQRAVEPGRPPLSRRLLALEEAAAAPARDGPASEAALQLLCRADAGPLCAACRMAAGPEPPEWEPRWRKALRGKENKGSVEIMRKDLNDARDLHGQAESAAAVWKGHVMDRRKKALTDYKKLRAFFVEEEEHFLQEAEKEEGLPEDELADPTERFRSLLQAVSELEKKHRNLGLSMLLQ
UniProt Q6PCD5: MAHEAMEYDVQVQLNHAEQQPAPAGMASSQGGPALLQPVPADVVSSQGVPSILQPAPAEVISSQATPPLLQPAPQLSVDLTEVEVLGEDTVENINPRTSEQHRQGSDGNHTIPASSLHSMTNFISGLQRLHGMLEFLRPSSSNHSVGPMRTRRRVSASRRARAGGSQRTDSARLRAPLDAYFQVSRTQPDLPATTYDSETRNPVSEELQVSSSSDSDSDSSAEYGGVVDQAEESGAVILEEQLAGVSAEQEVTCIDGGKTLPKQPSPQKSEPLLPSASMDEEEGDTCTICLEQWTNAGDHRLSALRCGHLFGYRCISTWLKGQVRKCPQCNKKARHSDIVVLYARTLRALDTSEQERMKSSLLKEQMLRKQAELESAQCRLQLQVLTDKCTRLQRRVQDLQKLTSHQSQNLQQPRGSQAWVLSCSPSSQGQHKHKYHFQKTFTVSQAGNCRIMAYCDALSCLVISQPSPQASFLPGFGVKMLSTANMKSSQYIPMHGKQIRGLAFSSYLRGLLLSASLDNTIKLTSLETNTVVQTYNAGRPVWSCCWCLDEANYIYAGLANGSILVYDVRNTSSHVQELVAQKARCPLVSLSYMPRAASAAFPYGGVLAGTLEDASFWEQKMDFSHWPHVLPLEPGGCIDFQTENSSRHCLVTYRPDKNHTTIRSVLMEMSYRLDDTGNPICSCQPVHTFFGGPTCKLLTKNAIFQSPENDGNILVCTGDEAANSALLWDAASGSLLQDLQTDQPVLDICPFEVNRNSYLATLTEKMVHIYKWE
UniProt Q8TBZ6: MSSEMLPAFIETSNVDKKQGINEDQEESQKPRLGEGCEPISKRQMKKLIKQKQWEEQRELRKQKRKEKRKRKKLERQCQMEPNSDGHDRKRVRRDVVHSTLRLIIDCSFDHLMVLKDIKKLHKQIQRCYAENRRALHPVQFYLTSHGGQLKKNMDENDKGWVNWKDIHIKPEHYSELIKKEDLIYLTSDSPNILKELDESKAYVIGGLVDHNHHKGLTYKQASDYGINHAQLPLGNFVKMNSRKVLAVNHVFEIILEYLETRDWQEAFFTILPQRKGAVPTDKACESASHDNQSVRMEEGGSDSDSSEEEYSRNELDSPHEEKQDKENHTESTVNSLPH
UniProt Q9H920: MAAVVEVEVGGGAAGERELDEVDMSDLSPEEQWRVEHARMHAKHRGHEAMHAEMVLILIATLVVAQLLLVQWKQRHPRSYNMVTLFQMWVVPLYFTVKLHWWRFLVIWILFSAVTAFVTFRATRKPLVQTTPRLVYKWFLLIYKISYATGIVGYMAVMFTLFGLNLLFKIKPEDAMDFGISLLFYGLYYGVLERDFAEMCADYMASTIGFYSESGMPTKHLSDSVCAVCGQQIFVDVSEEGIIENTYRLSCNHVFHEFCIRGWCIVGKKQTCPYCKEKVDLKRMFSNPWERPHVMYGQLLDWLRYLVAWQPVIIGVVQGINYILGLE
UniProt Q6JBY9, whole entry: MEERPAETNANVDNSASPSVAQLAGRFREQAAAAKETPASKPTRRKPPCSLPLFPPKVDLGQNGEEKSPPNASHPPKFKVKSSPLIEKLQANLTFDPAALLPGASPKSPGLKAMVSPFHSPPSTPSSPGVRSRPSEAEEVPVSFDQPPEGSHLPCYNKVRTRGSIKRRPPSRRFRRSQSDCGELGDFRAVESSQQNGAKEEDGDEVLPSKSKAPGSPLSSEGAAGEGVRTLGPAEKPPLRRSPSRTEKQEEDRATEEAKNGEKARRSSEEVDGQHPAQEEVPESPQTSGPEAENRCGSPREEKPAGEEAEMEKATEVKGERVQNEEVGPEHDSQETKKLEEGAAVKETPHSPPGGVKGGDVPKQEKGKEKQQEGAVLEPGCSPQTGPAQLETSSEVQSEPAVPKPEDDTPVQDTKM
UniProt Q96BH1: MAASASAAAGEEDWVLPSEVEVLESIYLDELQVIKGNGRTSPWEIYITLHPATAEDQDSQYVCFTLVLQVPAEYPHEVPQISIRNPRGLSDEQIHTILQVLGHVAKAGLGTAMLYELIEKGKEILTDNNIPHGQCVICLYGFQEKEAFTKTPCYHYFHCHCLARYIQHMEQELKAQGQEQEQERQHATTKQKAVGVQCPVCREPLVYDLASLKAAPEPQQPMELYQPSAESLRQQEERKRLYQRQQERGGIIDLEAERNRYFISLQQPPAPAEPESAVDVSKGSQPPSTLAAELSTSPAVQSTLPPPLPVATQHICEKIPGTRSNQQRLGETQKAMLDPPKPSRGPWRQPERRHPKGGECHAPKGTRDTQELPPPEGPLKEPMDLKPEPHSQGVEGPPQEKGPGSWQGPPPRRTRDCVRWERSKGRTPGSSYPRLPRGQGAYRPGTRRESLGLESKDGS
UniProt Q5K651: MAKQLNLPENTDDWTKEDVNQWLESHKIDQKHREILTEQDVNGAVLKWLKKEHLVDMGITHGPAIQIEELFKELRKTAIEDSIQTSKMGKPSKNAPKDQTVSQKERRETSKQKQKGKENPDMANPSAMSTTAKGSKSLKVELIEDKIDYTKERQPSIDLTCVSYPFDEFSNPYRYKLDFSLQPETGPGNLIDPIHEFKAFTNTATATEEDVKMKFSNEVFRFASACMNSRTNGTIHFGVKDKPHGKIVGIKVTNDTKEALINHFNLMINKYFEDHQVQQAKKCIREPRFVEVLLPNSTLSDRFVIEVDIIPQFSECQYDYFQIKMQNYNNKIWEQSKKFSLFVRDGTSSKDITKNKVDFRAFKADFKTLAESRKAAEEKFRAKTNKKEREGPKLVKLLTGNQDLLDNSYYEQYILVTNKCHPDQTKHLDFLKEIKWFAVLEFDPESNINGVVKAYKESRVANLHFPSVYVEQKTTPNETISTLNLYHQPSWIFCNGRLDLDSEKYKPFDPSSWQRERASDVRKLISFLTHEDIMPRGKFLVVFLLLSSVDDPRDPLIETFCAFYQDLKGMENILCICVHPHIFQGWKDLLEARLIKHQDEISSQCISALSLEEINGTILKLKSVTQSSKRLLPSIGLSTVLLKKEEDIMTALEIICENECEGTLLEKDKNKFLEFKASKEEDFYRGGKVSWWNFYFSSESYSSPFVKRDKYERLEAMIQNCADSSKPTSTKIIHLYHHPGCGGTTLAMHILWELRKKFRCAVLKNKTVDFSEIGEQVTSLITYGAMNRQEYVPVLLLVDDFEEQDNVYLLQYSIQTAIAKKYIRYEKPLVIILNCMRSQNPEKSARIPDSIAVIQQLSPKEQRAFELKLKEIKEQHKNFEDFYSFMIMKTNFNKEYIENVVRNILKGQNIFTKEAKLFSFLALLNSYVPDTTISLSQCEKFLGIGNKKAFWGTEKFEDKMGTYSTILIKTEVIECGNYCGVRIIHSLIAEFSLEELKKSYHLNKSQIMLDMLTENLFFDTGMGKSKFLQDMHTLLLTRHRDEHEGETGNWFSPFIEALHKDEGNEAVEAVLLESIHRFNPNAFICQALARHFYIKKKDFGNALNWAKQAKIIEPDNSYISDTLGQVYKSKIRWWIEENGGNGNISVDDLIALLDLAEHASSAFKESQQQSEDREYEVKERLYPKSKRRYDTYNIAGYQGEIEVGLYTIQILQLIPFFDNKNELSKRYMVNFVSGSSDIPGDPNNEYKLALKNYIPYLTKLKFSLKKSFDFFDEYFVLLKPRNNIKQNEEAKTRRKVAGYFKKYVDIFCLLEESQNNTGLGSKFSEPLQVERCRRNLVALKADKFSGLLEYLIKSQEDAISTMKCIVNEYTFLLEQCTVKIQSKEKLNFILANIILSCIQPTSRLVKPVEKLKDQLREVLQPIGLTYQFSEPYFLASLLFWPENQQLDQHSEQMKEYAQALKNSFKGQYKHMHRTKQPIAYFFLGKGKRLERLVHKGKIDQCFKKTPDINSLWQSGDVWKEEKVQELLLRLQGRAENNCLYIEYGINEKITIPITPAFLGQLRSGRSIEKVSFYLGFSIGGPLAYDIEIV
UniProt O00584, whole entry: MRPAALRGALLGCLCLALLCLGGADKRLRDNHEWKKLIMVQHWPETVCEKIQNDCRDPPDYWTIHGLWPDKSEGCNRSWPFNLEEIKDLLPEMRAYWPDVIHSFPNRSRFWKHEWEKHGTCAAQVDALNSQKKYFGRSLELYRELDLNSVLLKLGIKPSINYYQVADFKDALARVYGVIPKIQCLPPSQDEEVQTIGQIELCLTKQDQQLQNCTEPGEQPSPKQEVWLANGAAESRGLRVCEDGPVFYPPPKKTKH

Compound: COc1ccc(Cn2ccc3ccc(C(=O)NO)cc32)cc1
Test: dose-dependent thermal stabilisation call (2D-TPP, DLPTP, 10% FDR) (binary (1 = stabilised)); higher = stabilised by the compound
Conditions: system: HL-60 intact cells; concentration range 0.04-10 µM

Row | Target | dose-dependent thermal stabilisation call
1 | RPS20 (UniProt P60866) | active: 1
2 | SAMD1 (UniProt Q6SPF0) | inactive: 0
3 | RNF187 (UniProt Q5TA31) | inactive: 0
4 | RFWD3 (UniProt Q6PCD5) | inactive: 0
5 | RG9MTD2 (UniProt Q8TBZ6) | inactive: 0
6 | RNF121 (UniProt Q9H920) | inactive: 0
7 | RCSD1 (UniProt Q6JBY9) | inactive: 0
8 | RNF25 (UniProt Q96BH1) | inactive: 0
9 | RPL23A (UniProt P62750) | inactive: 0
10 | SAMD9 (UniProt Q5K651) | inactive: 0
11 | RNASET2 (UniProt O00584) | inactive: 0

Pulled one by one from the list above (2):
Row | Target | dose-dependent thermal stabilisation call
4 | RFWD3 (UniProt Q6PCD5) | inactive: 0
6 | RNF121 (UniProt Q9H920) | inactive: 0
